Results as given in the supplement of paper PMC10849652.
The other results are listed elsewhere or left out.

Chains of the proteins cited; added tags and fusions are not shown. Lines headed by an entry give the natural chain unless they say otherwise; changes in a name come on top.
UniProt P16278: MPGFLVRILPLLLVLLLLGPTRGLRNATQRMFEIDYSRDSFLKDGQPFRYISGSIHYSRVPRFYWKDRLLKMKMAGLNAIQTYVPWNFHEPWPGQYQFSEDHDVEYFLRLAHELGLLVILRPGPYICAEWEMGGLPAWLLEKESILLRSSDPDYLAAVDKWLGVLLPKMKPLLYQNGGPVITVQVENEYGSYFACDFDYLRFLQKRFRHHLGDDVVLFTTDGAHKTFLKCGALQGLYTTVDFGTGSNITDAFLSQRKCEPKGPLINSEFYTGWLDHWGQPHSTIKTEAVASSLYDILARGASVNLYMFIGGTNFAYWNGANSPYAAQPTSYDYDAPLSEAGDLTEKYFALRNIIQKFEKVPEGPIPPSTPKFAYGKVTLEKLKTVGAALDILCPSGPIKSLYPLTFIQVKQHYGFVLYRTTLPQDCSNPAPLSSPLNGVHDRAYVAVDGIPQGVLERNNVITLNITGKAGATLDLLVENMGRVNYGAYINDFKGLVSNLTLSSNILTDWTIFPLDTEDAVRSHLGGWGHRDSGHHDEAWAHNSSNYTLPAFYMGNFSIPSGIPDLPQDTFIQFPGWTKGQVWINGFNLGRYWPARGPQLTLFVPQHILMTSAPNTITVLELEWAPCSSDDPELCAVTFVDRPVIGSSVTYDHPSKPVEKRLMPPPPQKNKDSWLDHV
UniProt P36959: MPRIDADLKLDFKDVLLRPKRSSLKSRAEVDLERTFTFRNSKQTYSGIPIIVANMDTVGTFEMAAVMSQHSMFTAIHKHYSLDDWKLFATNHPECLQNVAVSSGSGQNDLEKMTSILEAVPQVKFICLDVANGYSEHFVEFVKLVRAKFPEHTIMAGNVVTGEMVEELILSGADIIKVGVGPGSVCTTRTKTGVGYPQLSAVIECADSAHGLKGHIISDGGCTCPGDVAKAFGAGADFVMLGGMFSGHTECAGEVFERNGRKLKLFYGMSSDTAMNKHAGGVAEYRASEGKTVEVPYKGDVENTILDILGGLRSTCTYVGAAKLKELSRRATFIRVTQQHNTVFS
UniProt Q9UKD1: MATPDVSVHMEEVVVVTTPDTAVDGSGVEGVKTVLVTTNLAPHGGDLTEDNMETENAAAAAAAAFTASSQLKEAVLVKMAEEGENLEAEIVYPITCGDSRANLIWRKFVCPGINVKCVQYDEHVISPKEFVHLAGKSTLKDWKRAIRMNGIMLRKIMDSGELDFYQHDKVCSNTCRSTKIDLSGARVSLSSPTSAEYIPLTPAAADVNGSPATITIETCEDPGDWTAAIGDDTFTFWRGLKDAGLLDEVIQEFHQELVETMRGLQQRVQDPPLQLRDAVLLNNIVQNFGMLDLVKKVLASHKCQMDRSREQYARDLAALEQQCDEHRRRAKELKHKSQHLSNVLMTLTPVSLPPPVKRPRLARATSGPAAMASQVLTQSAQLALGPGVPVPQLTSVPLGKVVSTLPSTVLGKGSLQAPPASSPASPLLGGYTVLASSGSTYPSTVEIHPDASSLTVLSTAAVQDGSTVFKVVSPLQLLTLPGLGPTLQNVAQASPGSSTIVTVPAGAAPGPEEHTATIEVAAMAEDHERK
UniProt Q9UHW5, whole entry, looked up: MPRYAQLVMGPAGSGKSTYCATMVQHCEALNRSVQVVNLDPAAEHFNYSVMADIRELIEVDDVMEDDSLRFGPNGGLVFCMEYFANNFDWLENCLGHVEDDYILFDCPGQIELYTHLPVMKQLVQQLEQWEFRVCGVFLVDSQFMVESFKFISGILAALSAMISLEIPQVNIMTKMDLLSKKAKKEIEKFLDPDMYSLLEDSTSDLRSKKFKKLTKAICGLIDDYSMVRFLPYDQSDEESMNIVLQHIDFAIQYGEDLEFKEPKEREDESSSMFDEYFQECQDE
UniProt Q14691: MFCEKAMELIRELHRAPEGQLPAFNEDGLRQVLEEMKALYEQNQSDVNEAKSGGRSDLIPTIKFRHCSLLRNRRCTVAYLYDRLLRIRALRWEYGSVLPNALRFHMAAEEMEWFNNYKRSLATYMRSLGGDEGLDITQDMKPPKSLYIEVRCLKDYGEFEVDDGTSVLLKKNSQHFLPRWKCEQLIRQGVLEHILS
UniProt P62873, whole entry, looked up: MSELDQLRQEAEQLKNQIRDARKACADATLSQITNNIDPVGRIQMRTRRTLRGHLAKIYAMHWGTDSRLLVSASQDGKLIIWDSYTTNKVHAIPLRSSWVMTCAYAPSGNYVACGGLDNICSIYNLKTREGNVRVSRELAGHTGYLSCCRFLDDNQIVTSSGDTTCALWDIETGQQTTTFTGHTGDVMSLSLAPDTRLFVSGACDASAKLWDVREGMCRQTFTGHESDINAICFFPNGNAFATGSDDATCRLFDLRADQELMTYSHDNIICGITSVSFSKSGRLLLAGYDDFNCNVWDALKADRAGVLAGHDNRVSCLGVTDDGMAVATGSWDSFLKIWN
UniProt O76003: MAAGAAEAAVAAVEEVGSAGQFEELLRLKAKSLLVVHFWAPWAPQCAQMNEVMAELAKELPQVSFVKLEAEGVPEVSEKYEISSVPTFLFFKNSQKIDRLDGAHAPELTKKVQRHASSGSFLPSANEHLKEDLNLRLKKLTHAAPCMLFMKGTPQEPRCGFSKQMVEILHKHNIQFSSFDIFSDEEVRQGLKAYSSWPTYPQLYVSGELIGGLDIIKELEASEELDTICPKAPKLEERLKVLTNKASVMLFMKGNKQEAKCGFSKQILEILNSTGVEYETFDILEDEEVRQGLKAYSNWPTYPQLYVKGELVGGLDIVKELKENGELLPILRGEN
UniProt Q86WP2: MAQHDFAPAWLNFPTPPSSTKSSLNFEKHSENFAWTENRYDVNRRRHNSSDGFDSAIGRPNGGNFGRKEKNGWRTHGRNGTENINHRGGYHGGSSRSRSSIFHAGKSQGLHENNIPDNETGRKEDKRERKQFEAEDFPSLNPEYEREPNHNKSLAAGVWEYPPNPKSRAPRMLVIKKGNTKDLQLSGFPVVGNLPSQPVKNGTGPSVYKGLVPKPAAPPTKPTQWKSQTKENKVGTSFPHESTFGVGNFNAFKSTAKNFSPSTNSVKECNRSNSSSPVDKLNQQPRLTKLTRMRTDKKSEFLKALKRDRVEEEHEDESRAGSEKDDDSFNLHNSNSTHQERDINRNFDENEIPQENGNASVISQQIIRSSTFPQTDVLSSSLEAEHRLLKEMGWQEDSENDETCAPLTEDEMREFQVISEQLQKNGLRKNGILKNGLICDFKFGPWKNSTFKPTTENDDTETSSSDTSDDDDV
UniProt Q8IXQ4: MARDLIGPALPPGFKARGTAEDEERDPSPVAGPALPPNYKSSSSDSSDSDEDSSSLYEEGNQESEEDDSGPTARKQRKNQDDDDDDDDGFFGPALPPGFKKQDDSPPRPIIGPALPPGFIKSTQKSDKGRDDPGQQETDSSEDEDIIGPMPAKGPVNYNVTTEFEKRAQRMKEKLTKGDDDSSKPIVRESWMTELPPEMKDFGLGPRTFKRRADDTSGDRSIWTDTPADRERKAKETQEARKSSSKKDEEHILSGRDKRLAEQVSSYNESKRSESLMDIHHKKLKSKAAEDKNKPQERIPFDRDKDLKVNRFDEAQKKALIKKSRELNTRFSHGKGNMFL
UniProt P49915: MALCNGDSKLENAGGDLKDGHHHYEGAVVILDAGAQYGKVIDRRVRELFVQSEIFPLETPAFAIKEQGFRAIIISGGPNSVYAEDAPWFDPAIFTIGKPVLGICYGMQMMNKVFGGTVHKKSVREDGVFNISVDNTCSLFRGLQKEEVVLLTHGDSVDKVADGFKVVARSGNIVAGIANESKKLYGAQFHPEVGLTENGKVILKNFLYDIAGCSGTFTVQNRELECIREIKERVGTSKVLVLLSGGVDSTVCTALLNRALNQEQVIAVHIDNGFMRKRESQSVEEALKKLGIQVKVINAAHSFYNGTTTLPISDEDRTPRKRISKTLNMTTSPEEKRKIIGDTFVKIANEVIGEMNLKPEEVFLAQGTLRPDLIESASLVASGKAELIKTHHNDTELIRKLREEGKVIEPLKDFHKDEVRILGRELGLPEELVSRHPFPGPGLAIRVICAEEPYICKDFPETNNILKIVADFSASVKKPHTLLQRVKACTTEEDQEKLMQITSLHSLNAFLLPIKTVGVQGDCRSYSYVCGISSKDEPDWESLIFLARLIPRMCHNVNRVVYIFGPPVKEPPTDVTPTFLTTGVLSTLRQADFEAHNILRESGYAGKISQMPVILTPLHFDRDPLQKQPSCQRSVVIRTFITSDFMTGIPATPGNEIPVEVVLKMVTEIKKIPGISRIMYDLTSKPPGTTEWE
UniProt Q9HAV0, whole entry, looked up: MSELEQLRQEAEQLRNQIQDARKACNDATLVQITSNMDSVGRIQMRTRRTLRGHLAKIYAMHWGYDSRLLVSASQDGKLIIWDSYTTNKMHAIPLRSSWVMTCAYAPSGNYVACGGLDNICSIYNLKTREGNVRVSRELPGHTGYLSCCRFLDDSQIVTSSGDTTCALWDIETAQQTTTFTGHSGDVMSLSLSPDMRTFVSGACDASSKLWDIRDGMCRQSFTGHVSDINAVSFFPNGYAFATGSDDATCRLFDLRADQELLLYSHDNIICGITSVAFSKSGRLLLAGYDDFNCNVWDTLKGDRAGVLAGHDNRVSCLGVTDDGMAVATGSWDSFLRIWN
UniProt Q13098: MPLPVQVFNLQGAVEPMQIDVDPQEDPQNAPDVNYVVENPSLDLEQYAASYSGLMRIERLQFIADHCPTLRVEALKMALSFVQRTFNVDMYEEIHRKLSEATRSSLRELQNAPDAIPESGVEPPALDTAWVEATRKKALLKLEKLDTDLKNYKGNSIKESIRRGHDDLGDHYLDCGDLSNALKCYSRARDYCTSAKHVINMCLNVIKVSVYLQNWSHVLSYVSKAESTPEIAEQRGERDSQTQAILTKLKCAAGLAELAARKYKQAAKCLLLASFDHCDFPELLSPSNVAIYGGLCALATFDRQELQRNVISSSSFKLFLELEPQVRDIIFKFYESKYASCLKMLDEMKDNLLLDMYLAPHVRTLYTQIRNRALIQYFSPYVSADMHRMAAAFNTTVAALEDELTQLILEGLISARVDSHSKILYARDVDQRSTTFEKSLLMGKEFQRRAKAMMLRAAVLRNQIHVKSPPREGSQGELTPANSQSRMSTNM
UniProt P04899, whole entry, looked up: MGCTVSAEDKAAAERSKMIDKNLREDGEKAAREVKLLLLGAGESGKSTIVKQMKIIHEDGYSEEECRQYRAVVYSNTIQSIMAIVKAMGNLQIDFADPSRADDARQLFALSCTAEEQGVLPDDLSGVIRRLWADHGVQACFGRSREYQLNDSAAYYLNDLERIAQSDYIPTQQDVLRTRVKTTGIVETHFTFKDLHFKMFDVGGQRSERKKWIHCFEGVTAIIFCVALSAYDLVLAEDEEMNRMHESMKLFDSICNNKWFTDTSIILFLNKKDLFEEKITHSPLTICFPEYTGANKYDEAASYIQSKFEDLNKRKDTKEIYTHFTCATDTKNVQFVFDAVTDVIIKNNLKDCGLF
UniProt Q9H4A6: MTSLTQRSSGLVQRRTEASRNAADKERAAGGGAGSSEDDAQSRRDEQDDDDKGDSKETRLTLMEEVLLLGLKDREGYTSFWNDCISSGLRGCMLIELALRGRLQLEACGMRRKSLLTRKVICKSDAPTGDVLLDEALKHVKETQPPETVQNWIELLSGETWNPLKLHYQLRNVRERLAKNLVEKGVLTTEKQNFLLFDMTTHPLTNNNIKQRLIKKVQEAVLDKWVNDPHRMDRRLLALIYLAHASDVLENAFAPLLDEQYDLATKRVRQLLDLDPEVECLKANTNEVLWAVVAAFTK
UniProt P32189: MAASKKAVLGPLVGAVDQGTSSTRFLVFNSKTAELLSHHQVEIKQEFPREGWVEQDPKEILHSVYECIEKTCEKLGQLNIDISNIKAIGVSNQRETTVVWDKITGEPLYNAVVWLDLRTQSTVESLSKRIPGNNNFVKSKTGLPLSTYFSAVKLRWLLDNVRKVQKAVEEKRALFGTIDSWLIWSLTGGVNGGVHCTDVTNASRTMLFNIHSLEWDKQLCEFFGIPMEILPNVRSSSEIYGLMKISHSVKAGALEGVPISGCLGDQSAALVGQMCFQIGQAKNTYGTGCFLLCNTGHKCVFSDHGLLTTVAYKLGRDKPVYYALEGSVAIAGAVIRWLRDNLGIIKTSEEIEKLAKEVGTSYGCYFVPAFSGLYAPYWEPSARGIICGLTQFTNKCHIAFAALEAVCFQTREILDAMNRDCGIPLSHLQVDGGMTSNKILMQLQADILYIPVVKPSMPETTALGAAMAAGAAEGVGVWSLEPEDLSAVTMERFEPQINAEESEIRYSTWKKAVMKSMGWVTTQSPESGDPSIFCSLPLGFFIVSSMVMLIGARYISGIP

Tests used:
Assay in all cases: log2 fold change, soluble protein after heating vs DMSO (PISA); higher = thermal stabilisation; K562 cells, 10 uM, 30 min; active = over 0.2 and 3.5 SD of the protein, either way, in both replicates (recomputed)
bafetinib = compound: Cc1ccc(NC(=O)c2ccc(CN3CC[C@H](N(C)C)C3)c(C(F)(F)F)c2)cc1Nc1nccc(-c2cncnc2)n1 [bafetinib]
In short: (§1)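 Thermal stability values are relative to control samples and come from duplicates. They are expressed as log2 fold changes. For measurement, K562 cells (2×10^6 cells/mL) received 10 μM compound for 30 min, and aliquots were heated for 3 min over 48°C-58°C, pooled, and extracted at 4°C in PBS with 0.5% NP-40. Soluble protein, the supernatant after 21,000xg for 90 min, was quantified by TMTpro 16plex LC-MS/MS with equalised channel sums.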

[1] = compound: Cc1cccc(CC(=O)N2CCc3c2ccc(-c2cn(C)c4ncnc(N)c24)c3F)n1
In short: as §1

nilotinib = compound: Cc1cn(-c2cc(NC(=O)c3ccc(C)c(Nc4nccc(-c5cccnc5)n4)c3)cc(C(F)(F)F)c2)cn1 [nilotinib]
In short: as §1

[2] = compound: Cc1nc(Nc2n[nH]c3c2CN(C(=O)N[C@H](CN(C)C)c2ccccc2)C3(C)C)c2sccc2n1
In short: as §1

dasatinib = compound: Cc1nc(Nc2ncc(C(=O)Nc3c(C)cccc3Cl)s2)cc(N2CCN(CCO)CC2)n1 [dasatinib]
In short: as §1

[3] = compound: Cc1ncc(-c2ccnc(Nc3ccc(S(C)(=O)=O)cc3)n2)n1C(C)C
In short: as §1

[4] = compound: Cn1cc(-c2ccc3c(c2)CCN3C(=O)Cc2cccc(C(F)(F)F)c2)c2c(N)ncnc21
In short: as §1

[5] = compound: Cn1cc(-c2ccc3nnc(C(F)(F)c4ccc5ncccc5c4)n3n2)cn1
In short: as §1

tipifarnib = compound: Cn1cncc1[C@@](N)(c1ccc(Cl)cc1)c1ccc2c(c1)c(-c1cccc(Cl)c1)cc(=O)n2C [tipifarnib]
In short: as §1

mubritinib = compound: FC(F)(F)c1ccc(/C=C/c2nc(COc3ccc(CCCCn4ccnn4)cc3)co2)cc1 [mubritinib]
In short: as §1

[6] = compound: NC(=O)Nc1cc(-c2cccc(F)c2)sc1C(=O)N[C@H]1CCCNC1
In short: as §1

[7] = compound: NC(=O)c1cnc(N[C@@H]2CCCC[C@@H]2N)nc1Nc1cccc(-n2nccn2)c1
In short: as §1

[8] = compound: NC1(c2ccc(-c3nc4ccn5c(=O)[nH]nc5c4cc3-c3ccccc3)cc2)CCC1
In short: as §1

[9] = compound: NCC(=O)Nc1ccc(-n2nc(C(F)(F)F)cc2-c2ccc3c(ccc4ccccc43)c2)cc1
In short: as §1

entinostat = compound: Nc1ccccc1NC(=O)c1ccc(CNC(=O)OCc2cccnc2)cc1 [entinostat]
In short: as §1

vorinostat = compound: O=C(CCCCCCC(=O)Nc1ccccc1)NO [vorinostat]
In short: as §1

citarinostat = compound: O=C(CCCCCCNC(=O)c1cnc(N(c2ccccc2)c2ccccc2Cl)nc1)NO [citarinostat]
In short: as §1

silmitasertib = compound: O=C(O)c1ccc2c(c1)nc(Nc1cccc(Cl)c1)c1ccncc12 [silmitasertib]
In short: as §1

[10] = compound: O=C1NC(=O)C(c2cnc3ccccn23)=C1c1cn2c3c(cc(F)cc13)CN(C(=O)N1CCCCC1)CC2
In short: as §1

[11] = compound: c1cc(OCCN2CCCCC2)cc(-c2n[nH]c3ccc(-c4nnc[nH]4)cc23)c1
In short: as §1

Target	log2 fold change (bafetinib)	log2 fold change [1]	log2 fold change (nilotinib)	log2 fold change [2]	log2 fold change (dasatinib)	log2 fold change [3]	log2 fold change [4]	log2 fold change [5]	log2 fold change (tipifarnib)	log2 fold change (mubritinib)	log2 fold change [6]	log2 fold change [7]	log2 fold change [8]	log2 fold change [9]	log2 fold change (entinostat)	log2 fold change (vorinostat)	log2 fold change (citarinostat)	log2 fold change (silmitasertib)	log2 fold change [10]	log2 fold change [11]
GLB1 (UniProt P16278)	active: -0.418	inactive: -0.009	inactive: 0.013	inactive: 0.017	inactive: 0.061	inactive: 0.004	inactive: -0.006	inactive: 0.016	inactive: 0.039	inactive: -0.009	inactive: 0.02	inactive: 0.002	inactive: -0.097	inactive: -0.043	inactive: 0.01	inactive: -0.065	inactive: 0.005	inactive: 0.021	inactive: -0.003	inactive: -0.044
GMPR (UniProt P36959)	inactive: -0.026	inactive: 0.014	inactive: -0.016	inactive: 0.017	inactive: -0.039	inactive: -0.007	inactive: 0.015	inactive: 0.016	inactive: -0.063	inactive: 0.014	inactive: 0.004	inactive: 0.015	inactive: -0.003	inactive: 0.021	inactive: -0.005	inactive: 0.026	inactive: 0.041	inactive: -0.01	inactive: -0.017	inactive: -0.044
GMEB2 (UniProt Q9UKD1)	inactive: 0.019	inactive: 0.013	inactive: 0.019	inactive: -0.021	inactive: -0.036	inactive: -0.05	inactive: -0.084	inactive: -0.006	inactive: -0.011	inactive: -0.041	inactive: -0.039	inactive: -0.079	inactive: 0.056	inactive: -0.119	inactive: 0.064	inactive: 0.063	inactive: 0.086	inactive: 0.044	inactive: -0.194	inactive: -0.037
GPN3 isoform 2 (UniProt Q9UHW5)	inactive: -0.041	inactive: -0.021	inactive: 0.019	inactive: 0.095	inactive: 0.056	inactive: -0.009	inactive: 0.011	inactive: -0.046	inactive: 0	inactive: 0.088	inactive: -0.03	inactive: 0.077	inactive: -0.023	inactive: 0.061	inactive: 0.036	inactive: 0.061	inactive: -0.002	inactive: -0.014	inactive: 0.007	inactive: 0.021
GINS1 (UniProt Q14691)	inactive: 0.012	inactive: -0.007	inactive: 0.031	inactive: -0.094	inactive: -0.167	inactive: -0.068	inactive: 0.06	inactive: -0.114	inactive: -0.042	inactive: 0.113	inactive: -0.108	inactive: -0.026	inactive: -0.146	inactive: -0.002	inactive: 0.038	inactive: 0.08	inactive: 0.012	inactive: -0.074	inactive: -0.054	inactive: -0.024
GNB1 (UniProt P62873)	inactive: 0.136	inactive: 0.069	inactive: 0.081	inactive: 0.01	inactive: -0.025	inactive: -0.008	inactive: 0.033	inactive: 0.003	inactive: -0.064	inactive: -0.018	inactive: -0.054	inactive: 0.09	inactive: 0.05	inactive: 0.019	inactive: -0.05	inactive: 0.045	inactive: 0.012	inactive: 0.015	inactive: 0.007	inactive: -0.004
GLRX3 (UniProt O76003)	inactive: -0.04	inactive: 0.025	inactive: -0.048	inactive: -0.022	inactive: -0.054	inactive: 0.015	inactive: -0.015	inactive: -0.014	inactive: -0.082	inactive: -0.004	inactive: 0	inactive: -0.057	inactive: -0.066	inactive: -0.042	inactive: 0.022	inactive: -0.013	inactive: 0.014	inactive: 0.034	inactive: -0.094	inactive: -0.024
GPBP1 isoform 2 (UniProt Q86WP2)	inactive: -0.001	inactive: -0.052	inactive: 0.057	inactive: -0.081	inactive: 0.042	inactive: -0.02	inactive: -0.004	inactive: -0.025	inactive: 0.061	inactive: 0.027	inactive: -0.038	inactive: -0.049	inactive: -0.11	inactive: 0.064	inactive: -0.014	inactive: -0.018	inactive: -0.037	inactive: 0.029	inactive: -0.03	inactive: -0.099
GPALPP1 (UniProt Q8IXQ4)	inactive: -0.056	inactive: -0.09	inactive: -0.003	inactive: 0.046	inactive: 0.03	inactive: -0.002	inactive: 0.019	inactive: 0.105	inactive: 0.007	inactive: 0.003	inactive: 0.053	inactive: -0.012	inactive: 0.012	inactive: -0.008	inactive: -0.003	inactive: 0.034	inactive: -0.014	inactive: 0.011	inactive: -0.048	inactive: -0.056
GMPS (UniProt P49915)	inactive: 0.007	inactive: 0.023	inactive: -0.046	inactive: 0.006	inactive: -0.101	inactive: -0.027	inactive: 0.087	inactive: 0	inactive: -0.136	inactive: 0.011	inactive: -0.018	inactive: -0.049	inactive: -0.172	inactive: -0.027	inactive: 0.014	inactive: 0.047	inactive: 0.064	inactive: -0.068	inactive: -0.029	inactive: -0.005
GNB4 (UniProt Q9HAV0)	inactive: 0.071	inactive: 0.051	inactive: 0.22	inactive: 0.066	inactive: 0.107	inactive: -0.043	inactive: 0.018	inactive: -0.174	inactive: -0.061	inactive: 0.07	inactive: -0.05	inactive: 0.148	inactive: -0.172	inactive: 0.094	inactive: 0.159	inactive: 0.042	inactive: -0.127	inactive: 0.082	inactive: 0.045	inactive: 0.061
GPS1 isoform 7 (UniProt Q13098)	inactive: -0.048	inactive: 0.026	inactive: -0.001	inactive: -0.001	inactive: 0.001	inactive: -0.005	inactive: 0.016	inactive: -0.003	inactive: 0.007	inactive: 0.033	inactive: -0.012	inactive: 0.01	inactive: -0.062	inactive: 0.033	inactive: 0.003	inactive: 0.002	inactive: 0.024	inactive: 0.008	inactive: -0.028	inactive: -0.009
GNAI2 isoform 4 (UniProt P04899)	inactive: 0.079	inactive: -0.033	inactive: 0.13	inactive: 0.011	inactive: 0.028	inactive: -0.007	inactive: 0.001	inactive: 0.017	inactive: -0.04	inactive: -0.03	inactive: -0.146	inactive: 0.053	inactive: -0.004	inactive: 0.087	inactive: -0.042	inactive: -0.058	inactive: -0.003	inactive: 0.06	inactive: -0.07	inactive: -0.029
GOLPH3 (UniProt Q9H4A6)	inactive: 0.074	inactive: 0.032	inactive: -0.021	inactive: -0.015	inactive: -0.123	inactive: -0.013	inactive: 0.02	inactive: -0.013	inactive: -0.028	inactive: 0.07	inactive: 0.041	inactive: -0.082	inactive: 0.009	inactive: 0	inactive: 0.022	inactive: 0.014	inactive: 0.071	inactive: -0.013	inactive: 0	inactive: -0.043
GK (UniProt P32189)	inactive: -0.066	inactive: -0.013	inactive: 0.011	inactive: 0.01	inactive: 0.046	inactive: -0.031	inactive: 0.031	inactive: 0.22	inactive: 0.083	inactive: 0.048	inactive: 0.004	inactive: 0.002	inactive: -0.033	inactive: 0.007	inactive: -0.009	inactive: -0.008	inactive: 0.009	inactive: 0.033	inactive: -0.014	inactive: -0.023
GPI (UniProt P06744)	inactive: 0.026	inactive: 0.01	inactive: -0.021	inactive: -0.041	inactive: -0.046	inactive: -0.008	inactive: 0.031	inactive: 0.011	inactive: -0.007	inactive: 0.059	inactive: -0.009	inactive: -0.012	inactive: -0.013	inactive: 0.001	inactive: 0.004	inactive: -0.001	inactive: -0.01	inactive: -0.046	inactive: -0.054	inactive: 0.004
